At least one structure is not confirmed: it was looked up by name or label, or the drawing left a doubt.
Tested on: proteasome
Assay: Proteasome immunofluorescence in differentiated C2 mouse myogenic cells
Format: cell-based

C[C@@H]1C[C@H]2[C@@H]3CCC4=CC(=O)C=C[C@]4(C)[C@@]3(F)[C@@H](O)C[C@]2(C)[C@@]1(O)C(=O)CO [dexamethasone]
proteasome translocation in differentiated mouse muscle cells: resulted in proteasome translocation

— patent publication US20230330064A1, “TYROSINE, TRYPTOPHAN AND PHENYLALANINE AS mTOR AGONISTS MEDIATING PROTEASOME DYNAMICS, COMPOSITIONS, METHODS AND USES THEREOF IN THERAPY, AND PROGNOSTIC METHODS FOR DRUG-RESISTANCE” (Technion Research & Development Foundation Limited, priority 2020, published 2023)
